Measured values as given in patent US11247980B2, “Herbicidal uracilpyrid” (BASF SE, priority 2017, dated 2022).
Some of these results come from one statement about several compounds together.

Tests used:
Assay in all cases: greenhouse experiments, herbicidal activity, post-emergence treatment
Conditions in all cases: application rate of 16 g/ha, post-emergence method, scale from 0 to 100
AMARE = assay type: in vivo, Amaranthus retroflexus
CHEAL = assay type: in vivo, Chenopodium album
ECHCG = assay type: in vivo, Echinocloa crus-galli
SETVI = assay type: in vivo, Setaria viridis

| SMILES | herbicidal activity against AMARE (AMARE) | herbicidal activity against CHEAL (CHEAL) | herbicidal activity against ECHCG (ECHCG) | herbicidal activity against SETVI (SETVI) |
| --- | --- | --- | --- | --- |
| Cn1c(C(F)(F)F)cc(=O)n(-c2nc(Oc3ccccc3OCC(=O)OC3CCCC3)c(Cl)cc2F)c1=O [compound 62] | very good herbicidal activity (a very good herbicidal activity is given at values of at least 85) | very good herbicidal activity (a very good herbicidal activity is given at values of at least 85) | very good herbicidal activity (a very good herbicidal activity is given at values of at least 85) | very good herbicidal activity (a very good herbicidal activity is given at values of at least 85) |
| Cn1c(C(F)(F)F)cc(=O)n(-c2nc(Oc3ccccc3OCC(=O)OC3CCCCC3)c(Cl)cc2F)c1=O [compound 63] | very good herbicidal activity (a very good herbicidal activity is given at values of at least 85) | very good herbicidal activity (a very good herbicidal activity is given at values of at least 85) | very good herbicidal activity (a very good herbicidal activity is given at values of at least 85) | very good herbicidal activity (a very good herbicidal activity is given at values of at least 85) |
| Cn1c(C(F)(F)F)cc(=O)n(-c2nc(Oc3ccccc3OCC(=O)Oc3ccccc3)c(Cl)cc2F)c1=O [compound 64] | very good herbicidal activity (a very good herbicidal activity is given at values of at least 85) | very good herbicidal activity (a very good herbicidal activity is given at values of at least 85) | very good herbicidal activity (a very good herbicidal activity is given at values of at least 85) | very good herbicidal activity (a very good herbicidal activity is given at values of at least 85) |
| Cn1c(C(F)(F)F)cc(=O)n(-c2nc(Oc3ccccc3OCC(=O)OC3COC3)c(Cl)cc2F)c1=O [compound 65] | very good herbicidal activity (a very good herbicidal activity is given at values of at least 85) | very good herbicidal activity (a very good herbicidal activity is given at values of at least 85) | very good herbicidal activity (a very good herbicidal activity is given at values of at least 85) | very good herbicidal activity (a very good herbicidal activity is given at values of at least 85) |
| Cn1c(C(F)(F)F)cc(=O)n(-c2nc(Oc3ccccc3OCC(=O)OC3CCOCC3)c(Cl)cc2F)c1=O [compound 66] | very good herbicidal activity (a very good herbicidal activity is given at values of at least 85) | very good herbicidal activity (a very good herbicidal activity is given at values of at least 85) | very good herbicidal activity (a very good herbicidal activity is given at values of at least 85) | very good herbicidal activity (a very good herbicidal activity is given at values of at least 85) |
| Cn1c(C(F)(F)F)cc(=O)n(-c2nc(Oc3ccccc3OCC(=O)OCC3CC3)c(Cl)cc2F)c1=O [compound 67] | very good herbicidal activity (a very good herbicidal activity is given at values of at least 85) | very good herbicidal activity (a very good herbicidal activity is given at values of at least 85) | very good herbicidal activity (a very good herbicidal activity is given at values of at least 85) | very good herbicidal activity (a very good herbicidal activity is given at values of at least 85) |
| Cn1c(C(F)(F)F)cc(=O)n(-c2nc(Oc3ccccc3OCC(=O)OCC3CCC3)c(Cl)cc2F)c1=O [compound 68] | very good herbicidal activity (a very good herbicidal activity is given at values of at least 85) | very good herbicidal activity (a very good herbicidal activity is given at values of at least 85) | very good herbicidal activity (a very good herbicidal activity is given at values of at least 85) | very good herbicidal activity (a very good herbicidal activity is given at values of at least 85) |
| Cn1c(C(F)(F)F)cc(=O)n(-c2nc(Oc3ccccc3OCC(=O)OCc3ccccc3)c(Cl)cc2F)c1=O [compound 69] | very good herbicidal activity (a very good herbicidal activity is given at values of at least 85) | very good herbicidal activity (a very good herbicidal activity is given at values of at least 85) | very good herbicidal activity (a very good herbicidal activity is given at values of at least 85) | very good herbicidal activity (a very good herbicidal activity is given at values of at least 85) |
| Cn1c(C(F)(F)F)cc(=O)n(-c2nc(Oc3ccccc3OCC(=O)OCc3ccco3)c(Cl)cc2F)c1=O [compound 70] | very good herbicidal activity (a very good herbicidal activity is given at values of at least 85) | very good herbicidal activity (a very good herbicidal activity is given at values of at least 85) | very good herbicidal activity (a very good herbicidal activity is given at values of at least 85) | very good herbicidal activity (a very good herbicidal activity is given at values of at least 85) |
| COCCOC(=O)COc1ccccc1Oc1nc(-n2c(=O)cc(C(F)(F)F)n(C)c2=O)c(F)cc1Cl [compound 71] | very good herbicidal activity (a very good herbicidal activity is given at values of at least 85) | very good herbicidal activity (a very good herbicidal activity is given at values of at least 85) | very good herbicidal activity (a very good herbicidal activity is given at values of at least 85) | very good herbicidal activity (a very good herbicidal activity is given at values of at least 85) |
| CCOCCOC(=O)COc1ccccc1Oc1nc(-n2c(=O)cc(C(F)(F)F)n(C)c2=O)c(F)cc1Cl [compound 72] | very good herbicidal activity (a very good herbicidal activity is given at values of at least 85) | very good herbicidal activity (a very good herbicidal activity is given at values of at least 85) | very good herbicidal activity (a very good herbicidal activity is given at values of at least 85) | very good herbicidal activity (a very good herbicidal activity is given at values of at least 85) |
| CC(C)OCCOC(=O)COc1ccccc1Oc1nc(-n2c(=O)cc(C(F)(F)F)n(C)c2=O)c(F)cc1Cl [compound 73] | very good herbicidal activity (a very good herbicidal activity is given at values of at least 85) | very good herbicidal activity (a very good herbicidal activity is given at values of at least 85) | very good herbicidal activity (a very good herbicidal activity is given at values of at least 85) | very good herbicidal activity (a very good herbicidal activity is given at values of at least 85) |
| COCCCOC(=O)COc1ccccc1Oc1nc(-n2c(=O)cc(C(F)(F)F)n(C)c2=O)c(F)cc1Cl [compound 74] | very good herbicidal activity (a very good herbicidal activity is given at values of at least 85) | very good herbicidal activity (a very good herbicidal activity is given at values of at least 85) | very good herbicidal activity (a very good herbicidal activity is given at values of at least 85) | very good herbicidal activity (a very good herbicidal activity is given at values of at least 85) |
| COC(COC(=O)COc1ccccc1Oc1nc(-n2c(=O)cc(C(F)(F)F)n(C)c2=O)c(F)cc1Cl)OC [compound 75] | very good herbicidal activity (a very good herbicidal activity is given at values of at least 85) | very good herbicidal activity (a very good herbicidal activity is given at values of at least 85) | very good herbicidal activity (a very good herbicidal activity is given at values of at least 85) | very good herbicidal activity (a very good herbicidal activity is given at values of at least 85) |
| CCOC(COC(=O)COc1ccccc1Oc1nc(-n2c(=O)cc(C(F)(F)F)n(C)c2=O)c(F)cc1Cl)OCC [compound 76] | very good herbicidal activity (a very good herbicidal activity is given at values of at least 85) | very good herbicidal activity (a very good herbicidal activity is given at values of at least 85) | very good herbicidal activity (a very good herbicidal activity is given at values of at least 85) | very good herbicidal activity (a very good herbicidal activity is given at values of at least 85) |
| COC(=O)COC(=O)COc1ccccc1Oc1nc(-n2c(=O)cc(C(F)(F)F)n(C)c2=O)c(F)cc1Cl [compound 77] | very good herbicidal activity (a very good herbicidal activity is given at values of at least 85) | very good herbicidal activity (a very good herbicidal activity is given at values of at least 85) | very good herbicidal activity (a very good herbicidal activity is given at values of at least 85) | very good herbicidal activity (a very good herbicidal activity is given at values of at least 85) |
| COC(=O)C(C)OC(=O)COc1ccccc1Oc1nc(-n2c(=O)cc(C(F)(F)F)n(C)c2=O)c(F)cc1Cl (centres unmarked) [compound 78] | very good herbicidal activity (a very good herbicidal activity is given at values of at least 85) | very good herbicidal activity (a very good herbicidal activity is given at values of at least 85) | very good herbicidal activity (a very good herbicidal activity is given at values of at least 85) | very good herbicidal activity (a very good herbicidal activity is given at values of at least 85) |
